Values from PubChem BioAssay AID1259308 (NCATS, 2017)
Here is a random part of about 59,000 deposited reagents. About 1,510 of them (2.6%) were called active. 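Calls use total luciferase alone and ignore viability, so some active siRNAs may act by altering cell number.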 Unmarked entries are inactive. Reagents against one gene are numbered here. Not all columns of the deposit are shown. No sequences are given here.

- Aim: 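Genes whose loss raises luciferase production in HEK293 cells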 (primary screen)
- Cells: human HEK293 embryonic kidney cells stably expressing firefly luciferase (HEK-CMV-Luc2-Hygro)
- Reagent: single siRNA against human genes, 0.8 pmol siRNA per well
- Duration: 72 h
- Measured: 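Luciferase light (ONE-Glo) measured on one replicate plate set and viability (CellTiter-Glo) on the other, scaled to a negative control siRNA, with robust z-scores and luciferase per cell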
- Scale: total luciferase, z-score: higher = more reporter protein produced
- Call rule: 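An siRNA counts as active if its total luciferase robust z-score exceeds 3; genes with two or more such siRNAs out of three were retested with fresh siRNAs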
- Calls: active = raised luciferase; inactive = no rise

Against SMIM48 #1, the entry reads total luciferase, z-score 2.17.
With knock-down of SMIM48 #2 the results were total luciferase, z-score -0.483.
SMIM48 #3 gave total luciferase, z-score 1.09.
With knock-down of RFFL #1, the screen gave total luciferase, z-score -2.05.
For RFFL #2 the deposit lists total luciferase, z-score 0.215.
RFFL #3 showed total luciferase, z-score -0.98.

2 entries from above, reformatted.
RFFL #1
- total luciferase, z-score: -2.05

RFFL #2
- total luciferase, z-score: 0.215

Further reagents:
ZBTB9 #1 showed total luciferase, z-score -0.00883.
Knock-down of ZBTB9 #2 came out at: total luciferase, z-score -0.323.
ZBTB9 #3 showed total luciferase, z-score -0.00477.
RAB11FIP2 #1 scored total luciferase, z-score -0.325.
After knock-down of RAB11FIP2 #2, the screen gave total luciferase, z-score -0.975.
Against RAB11FIP2 #3, the values are total luciferase, z-score 2.23.
